The values that follow come from publication PMC12742733.

Chains of the proteins cited; added tags and fusions are not shown. Residues count along the entry.
UniProt Q16620, residues 32-822: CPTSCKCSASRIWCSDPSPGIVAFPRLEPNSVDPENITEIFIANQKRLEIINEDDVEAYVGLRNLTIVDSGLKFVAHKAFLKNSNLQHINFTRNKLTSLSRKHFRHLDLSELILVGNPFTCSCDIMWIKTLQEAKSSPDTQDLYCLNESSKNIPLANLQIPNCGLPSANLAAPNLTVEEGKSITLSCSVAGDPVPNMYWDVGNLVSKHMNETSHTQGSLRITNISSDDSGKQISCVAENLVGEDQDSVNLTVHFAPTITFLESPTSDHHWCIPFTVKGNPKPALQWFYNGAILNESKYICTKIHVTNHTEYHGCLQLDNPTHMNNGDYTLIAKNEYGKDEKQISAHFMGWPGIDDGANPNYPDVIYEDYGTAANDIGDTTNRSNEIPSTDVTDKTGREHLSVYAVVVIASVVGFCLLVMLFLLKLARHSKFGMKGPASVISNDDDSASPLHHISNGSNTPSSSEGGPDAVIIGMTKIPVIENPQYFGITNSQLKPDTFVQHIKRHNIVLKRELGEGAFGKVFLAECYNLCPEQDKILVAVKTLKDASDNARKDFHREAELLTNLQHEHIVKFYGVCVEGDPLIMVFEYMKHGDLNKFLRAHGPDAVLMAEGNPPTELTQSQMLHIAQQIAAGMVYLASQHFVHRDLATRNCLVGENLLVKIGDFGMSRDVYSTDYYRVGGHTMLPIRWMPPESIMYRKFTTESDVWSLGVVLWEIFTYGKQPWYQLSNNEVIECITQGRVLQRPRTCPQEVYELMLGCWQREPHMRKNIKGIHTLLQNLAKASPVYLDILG

These are yes or no findings as the source states them, for the method shown. Binding seen in cells or lysates may run through a third protein. Some results given as binding are weak or reduced against the parent protein; the word gives no strength. Sequences can lack the tags named with a protein.

The assay addresses TrkB (pCMV-SPORT6-TrkB), untagged (UniProt Q16620). The assay can be described thus: co-IP; HEK293T cells transfected with pCMV-SPORT6-TrkB and pDisplay-SLITRK2 plasmids; lysis in 20 mM Tris pH 7.4, 1.0% Triton X-100, 0.1% SDS, 150 mM NaCl, 10% glycerol; antibody overnight at 4 °C, protein A-Sepharose; immunoblot. (In general: Immunoblotting shows a protein as a band on a membrane.)

B1: HA-tagged SLITRK2 WT (pDisplay-SLITRK2 WT) (receptor, UniProt Q9H156 22-845)
chain: RKTAKDICKIRCLCEEKENVLNINCENKGFTTVSLLQPPQYRIYQLFLNGNLLTRLYPNEFVNYSNAVTLHLGNNGLQEIRTGAFSGLKTLKRLHLNNNKLEILREDTFLGLESLEYLQADYNYISAIEAGAFSKLNKLKVLILNDNLLLSLPSNVFRFVLLTHLDLRGNRLKVMPFAGVLEHIGGIMEIQLEENPWNCTCDLLPLKAWLDTITVFVGEIVCETPFRLHGKDVTQLTRQDLCPRKSASDSSQRGSHADTHVQRLSPTMNPALNPTRAPKASRPPKMRNRPTPRVTVSKDRQSFGPIMVYQTKSPVPLTCPSSCVCTSQSSDNGLNVNCQERKFTNISDLQPKPTSPKKLYLTGNYLQTVYKNDLLEYSSLDLLHLGNNRIAVIQEGAFTNLTSLRRLYLNGNYLEVLYPSMFDGLQSLQYLYLEYNVIKEIKPLTFDALINLQLLFLNNNLLRSLPDNIFGGTALTRLNLRNNHFSHLPVKGVLDQLPAFIQIDLQENPWDCTCDIMGLKDWTEHANSPVIINEVTCESPAKHAGEILKFLGREAICPDSPNLSDGTVLSMNHNTDTPRSLSVSPSSYPELHTEVPLSVLILGLLVVFILSVCFGAGLFVFVLKRRKGVPSVPRNTNNLDVSSFQLQYGSYNTETHDKTDGHVYNYIPPPVGQMCQNPIYMQKEGDPVAYYRNLQEFSYSNLEEKKEEPATPAYTISATELLEKQATPREPELLYQNIAERVKELPSAGLVHYNFCTLPKRQFAPSYESRRQNQDRINKTVLYGTPRKCFVGQSKPNHPLLQAKPQSEPDYLEVLEKQTAISQL
As for B1, the binding entry was “binds”.

B2: HA-tagged SLITRK2 V89M (pDisplay-SLITRK2 V89M) (receptor, UniProt Q9H156 22-845)
chain: RKTAKDICKIRCLCEEKENVLNINCENKGFTTVSLLQPPQYRIYQLFLNGNLLTRLYPNEFVNYSNAMTLHLGNNGLQEIRTGAFSGLKTLKRLHLNNNKLEILREDTFLGLESLEYLQADYNYISAIEAGAFSKLNKLKVLILNDNLLLSLPSNVFRFVLLTHLDLRGNRLKVMPFAGVLEHIGGIMEIQLEENPWNCTCDLLPLKAWLDTITVFVGEIVCETPFRLHGKDVTQLTRQDLCPRKSASDSSQRGSHADTHVQRLSPTMNPALNPTRAPKASRPPKMRNRPTPRVTVSKDRQSFGPIMVYQTKSPVPLTCPSSCVCTSQSSDNGLNVNCQERKFTNISDLQPKPTSPKKLYLTGNYLQTVYKNDLLEYSSLDLLHLGNNRIAVIQEGAFTNLTSLRRLYLNGNYLEVLYPSMFDGLQSLQYLYLEYNVIKEIKPLTFDALINLQLLFLNNNLLRSLPDNIFGGTALTRLNLRNNHFSHLPVKGVLDQLPAFIQIDLQENPWDCTCDIMGLKDWTEHANSPVIINEVTCESPAKHAGEILKFLGREAICPDSPNLSDGTVLSMNHNTDTPRSLSVSPSSYPELHTEVPLSVLILGLLVVFILSVCFGAGLFVFVLKRRKGVPSVPRNTNNLDVSSFQLQYGSYNTETHDKTDGHVYNYIPPPVGQMCQNPIYMQKEGDPVAYYRNLQEFSYSNLEEKKEEPATPAYTISATELLEKQATPREPELLYQNIAERVKELPSAGLVHYNFCTLPKRQFAPSYESRRQNQDRINKTVLYGTPRKCFVGQSKPNHPLLQAKPQSEPDYLEVLEKQTAISQL
Regarding B2, the binding result is reported as “binds”.
